The list shows a part of the results.
The sequences below were run against T1, OsSMF1 (Oryza sativa, UniProt Q6ZLB0 1-436) (assay: protein-binding microarray (RPBM); PBS, 2% BSA, 51.3 ng/ul salmon testes DNA, 50 uM zinc acetate, 200 nM TF, 25 C, 1 h; high values mean tight binding). Conditions: protein: recombinant; tags: N-terminal polyhistidine and DsRed monomer fusion (pET32a); chain copies: 2; label: CyDye5-dUTP incorporated in the synthesized complementary strand; 3' TTTTT single-stranded linker to array surface; dsDNA, one strand shown.
T1 sequence: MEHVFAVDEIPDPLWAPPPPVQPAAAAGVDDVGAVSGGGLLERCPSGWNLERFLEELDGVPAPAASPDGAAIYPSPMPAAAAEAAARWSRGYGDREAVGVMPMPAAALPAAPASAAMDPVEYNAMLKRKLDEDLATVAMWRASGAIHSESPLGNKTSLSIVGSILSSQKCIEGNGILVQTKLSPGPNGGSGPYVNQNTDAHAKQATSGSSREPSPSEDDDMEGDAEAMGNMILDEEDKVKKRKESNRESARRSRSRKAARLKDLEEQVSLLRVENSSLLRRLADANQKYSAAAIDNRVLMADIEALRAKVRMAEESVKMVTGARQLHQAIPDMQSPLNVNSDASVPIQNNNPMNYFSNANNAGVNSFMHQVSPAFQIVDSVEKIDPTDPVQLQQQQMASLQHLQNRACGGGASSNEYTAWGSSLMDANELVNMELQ
Summary of the method: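 Binding signal here means per-feature fluorescence intensity in arbitrary units. The values were read on an Axon 4000B scanner after a custom Agilent array, double-stranded by primer extension with Cy5-dUTP, was incubated with 200 nM protein at 25 °C for 1 h in PBS with 2% BSA, salmon testes DNA and 50 µM zinc acetate, then washed. The proteins were transcription factors with an N-terminal polyhistidine tag and DsRed, expressed in E. coli BL21-CodonPlus and purified on Ni–NTA.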
In the case of “GGTGGTGACAGCCCTGCCCGTACTTTGCATCCCTCCACGTCGGAGTCACCTAGTGCAG”, the binding signal is reported as 4540 fluorescence intensity (a.u.). With “CTTAGATACCTTGTGGTTTATATCATGCACCGGCACTGGCCGGAGTCACCTAGTGCAG” the binding signal was 3620 fluorescence intensity (a.u.). In the case of “ACTACTCTCGTACTGTACTACTGTGGCGTGGCTATCTACTCGGAGTCACCTAGTGCAG”, the binding signal is reported as 4920 fluorescence intensity (a.u.). With “GTTTCCTTTTAGTCAACTATATGTAGGCATGATGATTCATCGGAGTCACCTAGTGCAG” the binding signal was 3640 fluorescence intensity (a.u.). In the case of “ATCCCTTTTGTGTAGTAATTGTCTAGTTCACATCGTGTCACGGAGTCACCTAGTGCAG”, the binding signal is reported as 3680 fluorescence intensity (a.u.). “ATTAAACCTGAACCTTGTACCTGTACTGTGCCCTTCTATACGGAGTCACCTAGTGCAG” was tested, and the binding signal was 3400 fluorescence intensity (a.u.). With “TCTCCCGTGGTTTCCGCGGTGGGCTACGTCCACTGTGGCGCGGAGTCACCTAGTGCAG” the binding signal was 3890 fluorescence intensity (a.u.). For “TTAGCCGATTGATCAGGTCAATGAGCCACGTCAGCGAAAACGGAGTCACCTAGTGCAG”, the binding signal was 21900 fluorescence intensity (a.u.). With “GCAGTGTCTGTGTTTGGCACGTCCACGACAGCACGAGACGCGGAGTCACCTAGTGCAG” the binding signal was 37100 fluorescence intensity (a.u.). With “CCACCTAACACTAATCAACCAGTCAACCACCACATCTTCCCGGAGTCACCTAGTGCAG” the binding signal was 3820 fluorescence intensity (a.u.). With “TGGAAGCCTCGTGAATATATAAAGCCCACGTGTCCACGGCCGGAGTCACCTAGTGCAG” the binding signal was 11500 fluorescence intensity (a.u.). “GTAGTACGACACGTACACCTGTTGGATTGTTCTTCTGTCTCGGAGTCACCTAGTGCAG” was tested, and the binding signal was 7370 fluorescence intensity (a.u.). With “TTGTATAACTATGTGTATATGTGTATGGTTATTAAGCAAACGGAGTCACCTAGTGCAG” the binding signal was 10500 fluorescence intensity (a.u.). In the case of “TCCTCCCGCACCTCGGCGTACCTCACCCGCCTCCGGACGACGGAGTCACCTAGTGCAG”, the binding signal is reported as 3430 fluorescence intensity (a.u.). With “TATTTTCAAATTAATTGAAAGGAGGGAGGCAAAGTGGACTCGGAGTCACCTAGTGCAG” the binding signal was 26100 fluorescence intensity (a.u.). With “AAGCTCCCCGGCCAGGCCGCCATCGGCCACGTGAGGTACTCGGAGTCACCTAGTGCAG” the binding signal was 4540 fluorescence intensity (a.u.). “AAAGGCTACGTCCTCAGGGAAGGATACATTCTTACCTAGCCGGAGTCACCTAGTGCAG” was tested, and the binding signal was 3600 fluorescence intensity (a.u.). For “ATTTGCATCAACAAATTTGCTTCGAACATTCTCCCTGATACGGAGTCACCTAGTGCAG”, the binding signal was 15900 fluorescence intensity (a.u.). “AGTCAGAGACAATGATGTCTTGCTGACATATGGGTCATCGCGGAGTCACCTAGTGCAG” was tested, and the binding signal was 3310 fluorescence intensity (a.u.). In the case of “CTCAGAATGCACACAACGGAACGAAGCAGTCACGCTCGTGCGGAGTCACCTAGTGCAG”, the binding signal is reported as 3560 fluorescence intensity (a.u.). “AAGTCCGATTCGTGAGTCACAGATGTTGACTCGCCGAAAACGGAGTCACCTAGTGCAG” was tested, and the binding signal was 5350 fluorescence intensity (a.u.). “AAGGTTAGTGATTAGCAATAGTGTACTCCGCCTCGTCACACGGAGTCACCTAGTGCAG” was tested, and the binding signal was 3420 fluorescence intensity (a.u.). With “CTTTGTTATTTTGAGTTCGGTCGCTGTAACGCAGGCTGTGCGGAGTCACCTAGTGCAG” the binding signal was 9280 fluorescence intensity (a.u.). In the case of “AGAACACGTGTGTGCTCCTCTTTTATCTCCTTGGGCCTTTCGGAGTCACCTAGTGCAG”, the binding signal is reported as 4830 fluorescence intensity (a.u.). For “CAAAGCGATCGAGGACGGCCAGATCATCACTCAACTTAGCCGGAGTCACCTAGTGCAG”, the binding signal was 5890 fluorescence intensity (a.u.). In the case of “CTCCTCCACGTGACCCGCGCCACCACCACCACCACCACCGCGGAGTCACCTAGTGCAG”, the binding signal is reported as 3540 fluorescence intensity (a.u.). With “CTGGGTTTTATCATATCTGACCGTATGAGTAGTTGGCATTCGGAGTCACCTAGTGCAG” the binding signal was 4220 fluorescence intensity (a.u.). For “TGCCGTCGCTGCCGCCGCAGCCCGTCCAGCGCACCGGGTACGGAGTCACCTAGTGCAG”, the binding signal was 31500 fluorescence intensity (a.u.). With “GCTGTTTTGCTCCCTGCACATTAGCTGTCCATTGGCAGCGCGGAGTCACCTAGTGCAG” the binding signal was 3180 fluorescence intensity (a.u.). For “TAGGTAGCATTTTCTGTAGTTGCAGCTCAAGTAAGGTAATCGGAGTCACCTAGTGCAG”, the binding signal was 3520 fluorescence intensity (a.u.). With “TATTAAGGTCCAGTAGAAAGCACGTGTCTTGCTTACGAGACGGAGTCACCTAGTGCAG” the binding signal was 3410 fluorescence intensity (a.u.). “CACCGATGATGGCCGGTCGACTAGTTTGATTCGTTCCGATCGGAGTCACCTAGTGCAG” was tested, and the binding signal was 3350 fluorescence intensity (a.u.). In the case of “AATTCAGAATGTGTCATGCTCATCTTCAGAAATGATTCATCGGAGTCACCTAGTGCAG”, the binding signal is reported as 5970 fluorescence intensity (a.u.). With “GTGACATATAAATAAGACATCACAATAGAAACTACACTTCCGGAGTCACCTAGTGCAG” the binding signal was 3420 fluorescence intensity (a.u.). “TACAGTTCTACTACTGCTATACCACTGATGAATCATCTCACGGAGTCACCTAGTGCAG” was tested, and the binding signal was 4460 fluorescence intensity (a.u.). In the case of “TGGCTCTCTTATCTCTTCATCTATTTTCATTCCACGTAAGCGGAGTCACCTAGTGCAG”, the binding signal is reported as 6510 fluorescence intensity (a.u.). For “TAGGAGTAAAGAAAATCCCTGTTTAATTAACGCCAAACTTCGGAGTCACCTAGTGCAG”, the binding signal was 24400 fluorescence intensity (a.u.). “GCAGGGCAACGCAGCATGATTGATTTCGTCATTCTCCTCTCGGAGTCACCTAGTGCAG” was tested, and the binding signal was 4060 fluorescence intensity (a.u.). With “AATTCTAAGAAATTTCATATAGGATTTATGGATAGCTATTCGGAGTCACCTAGTGCAG” the binding signal was 20200 fluorescence intensity (a.u.). In the case of “AAATTGCTTTTCATTTCACTTCACAATGGGCACGTACGCCCGGAGTCACCTAGTGCAG”, the binding signal is reported as 4280 fluorescence intensity (a.u.). For “ACGGCTGCCACGTTGGACCCGCGCGGGCCACTCACCCGCTCGGAGTCACCTAGTGCAG”, the binding signal was 12500 fluorescence intensity (a.u.). “ACACTATGATTATAATATATTTACATGTGTGAATTGTTTACGGAGTCACCTAGTGCAG” was tested, and the binding signal was 3640 fluorescence intensity (a.u.).
